The full ranking holds about 33,000 sequences; the median of “E-score (-0.5 to 0.5)” is about -0.0034, and the highest 2% start at about 0.25. The list shows a part of the results.
Each sequence was assayed against T1, Yap3 (UniProt P38749) (assay: PBM E-score (8-mer binding enrichment) (E-score (-0.5 to 0.5)); higher = stronger / more preferred TF binding). Settings: protein concentration: 100 nM; construct: GST-full length.
T1 sequence: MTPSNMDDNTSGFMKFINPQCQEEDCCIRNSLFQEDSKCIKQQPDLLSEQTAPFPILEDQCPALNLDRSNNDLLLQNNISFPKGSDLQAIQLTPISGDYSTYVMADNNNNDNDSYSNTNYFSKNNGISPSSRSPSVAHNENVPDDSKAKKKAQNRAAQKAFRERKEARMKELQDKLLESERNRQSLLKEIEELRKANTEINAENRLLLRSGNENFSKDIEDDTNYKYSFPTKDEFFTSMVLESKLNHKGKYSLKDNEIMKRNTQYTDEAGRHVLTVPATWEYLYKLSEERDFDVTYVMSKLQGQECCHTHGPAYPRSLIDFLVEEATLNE
In short: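 Yeast transcription factors carrying a GST tag, as full-length proteins or DNA-binding domains, were produced by PURExpress in vitro transcription/translation. About 100-200 nM protein was applied to universal all-10-mer Agilent arrays, double-stranded by primer extension on fresh or once-stripped slides. Bound protein was detected with fluorescent anti-GST, and scans were normalised with masliner. The Universal PBM Analysis Suite gave each ungapped eight-base word, pooled with its reverse complement, an E-score, a modified Wilcoxon-Mann-Whitney statistic.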

Sequence | PBM E-score
ATCTAATG | 0.0125
CCATTAGA | -0.187
CCGGTCGC | -0.238
CCTGAAAA | -0.0139
ATAGTGAT | 0.0481
GCCCAGAC | -0.326
GTGTACGA | 0.0182
ACAAGCAC | -0.0521
AAAAAGTG | 0.128
ATCTTTCA | 0.207
AGTCTTGC | -0.0169
AGTCCAAC | -0.148
GGGGTTCA | -0.103
AGATTTGA | 0.168
GCGCCCTA | -0.235
AATAAGTA | 0.215
ACTAGGAG | -0.18
AGAAGCGC | 0.105
AATTGAAG | -0.0722
TAGAAAGA | 0.0423
AATAGGAG | -0.242
GACGCAGC | -0.161

Sequence | PBM E-score
AAGTGTAG | 0.0222
CGGTCCGA | -0.192
ACTCTTAC | 0.183
CATTTATA | 0.215
CGACACTA | 0.129
AGAACAAC | 0.0478
GCCGTGGA | -0.21
CATACCCA | 0.0979
AGGGGACG | -0.124
AAGCCCTT | -0.18
CTGGTTCA | -0.105
CGGCCGAA | 0.0933
GAGAGAGC | -0.194
CGGTGGAG | -0.217
CTCAAGCC | -0.145
GACGGACA | 0.0978
GGGATCAA | 0.0188
AGCCTTAT | 0.0323
CCTCCCAG | -0.2
CACAACGC | 0.0619
AAGTAATT | 0.222
AGGCCGTG | -0.0817

Sequence | PBM E-score
ATTATTTC | 0.302
AGCATACA | 0.112
GTTTCGGA | -0.011
GGTAGCAC | -0.238
AGTAGCTA | 0.136
CTATCCAG | 0.00631
GAATGCGA | -0.00713
CACGCGCA | -0.0822
AATAGCTG | -0.054
CCTCCGCC | -0.223
GGTGGGAA | 0.0383
ATTTCAAA | 0.204
GGGACCCA | -0.241
ACCCTCAA | -0.0948
ATATCAGG | -0.0437
AATTTCCG | 0.237
ATCCTTGA | 0.0288
CGAGATGC | -0.0804
TGAAACCA | 0.131
TACTGTAA | 0.175
CGCCATGA | 0.077
ATTGTCTC | 0.137

Sequence | PBM E-score
ACGACTGA | -0.04
CTATAGTA | 0.156
AGTAGGCG | -0.0582
CAACTCGA | 0.0838
AGAATATC | 0.165
ACGAACGA | 0.0402
ACTGCCAA | 0.101
AGTTGATC | 0.0597
AGGAGAAT | -0.0293
GCAACGAA | 0.247
ATCTAAAC | -0.111
AACCCCTG | -0.246
TTCGCAAA | 0.198
AAGGTCTC | -0.0989
CGTCATGC | 0.0266
ATCAATGG | 0.0648
CCGATAGG | -0.0315
AACTGAGC | -0.185
AGACGTGA | 0.143
GTTTGTGA | 0.0699

Single values from the list.
Value for ACTGCCAA under PBM E-score: 0.101
Value for AACCCCTG under PBM E-score: -0.246
Value for AGACGTGA under PBM E-score: 0.143
Value for CGTCATGC under PBM E-score: 0.0266
